Results as given in US11529350B2, “Tyrosine kinase non-receptor 1 (TNK1) inhibitors and uses thereof” (Sumitomo Pharma Oncology, Inc., priority 2019, dated 2022).
At least one compound was matched to its structure with a doubt left. Some entries share one result that the patent states for a list of compounds.

What was measured:
L540 xenografts = assay: In vivo efficacy study in subcutaneous L540 Hodgkin's lymphoma CDX model; settings: monitored until Study Day 66
Experimental: An efficacy study was performed using Example No. 13 in a L540 CDX mouse model. Animals were NOD-SCID (#394) female mice 6-8 weeks of age from Charles River Laboratories (CRL). Example No. 13 was formulated weekly using Tween 80:Ethanol:PEG400:Water (2:10:30:58 v/v) as a vehicle. There were four treatment groups (n=10, 40 animals in total): a vehicle/control group, a group treated with 10 mg/kg Example No. 13, a group treated with 25 mg/kg Example No. 13 and a group treated with 50 mg/kg Example No. 13. When the average tumor volume reached 80-120 mm^3, animals were randomized and dosed daily for 21 days via oral gavage, 10 ml/kg dose volume. […] No tissues were collected. IDEXX pathogen test was performed prior to the cell culture; Corynebacterium bovis, Corynebacterium sp. (HAC2), EBV, HCMV, Hepatitis B, Hepatitis C, HIV1, HIV2, HPV16, HPV18, HTLV1, HTLV2, LDEV, and Mycoplasma sp. were tested, and all results were negative. Tumor volume measurements are provided as mean absolute tumor volume +/−SEM.

[1] = tested on: TNK1 and STAT5 phosphorylation in L540 tumor tissue; assay: In vivo single dose PD study, L540 xenograft, Western blot; set-up: species or system mouse
Experimental: The objective of this study was to assess in vivo pharmacodynamic activity of Example No. 13 in a subcutaneous xenograft model of Hodgkin's lymphoma in female NOD SCID mice, aged 6-8 weeks. There were 4 groups (and a total of 84 mice): Example No. 13 at 50 mg/kg, 25 mg/kg, or 10 mg/kg (n=27 mice for each dose), and vehicle (n=3 mice). When the average tumor volume reached 300 mm^3, animals were randomized and dosed once p.o. at a 10 mL/kg dose volume. Blood and tumors were collected at nine different time points.
Example No. 13 was formulated in Tween 80 (0.2 mL), ethanol (1 mL), PEG400 (3 mL), and water (5.8 mL).
In this study, protein expression was analyzed by Western blotting method. Tissue samples were acquired as part of a single dose PK/PD study. Equal amounts of tumor were placed into a bead tube, lysis buffer (RIPA buffer (Sigma No. 0278), Halt CocktaiL (ThermoFisher No. 78440), EDTA (ThermoFisher No. 1861274), PhosSTOP (Sigma No. 04906845001), cOmplete (Sigma No. 11697498001) and Inhibitor Cocktail 3 (Sigma No. P0044-1ML)) was added, and samples were homogenized using bead homogenizer (2×20 s at 4.5 m/s (Fisherbrand Bead Mill 24 Homogenizer, Fisher Scientific)). Lysates were cleared by centrifuging at 5,000 rpm for 5 minutes at 4° C.
Protein concentration was determined using BCA kit (Invitrogen No. 23225). Equal amounts of protein were pooled from each treatment group, and concentration was measured again in the pooled samples. Equal amounts of protein from each pooled treatment group were boiled at 900° C. for 5 minutes, loaded onto a 4-12% Tris-Bis NUPAGE gel, and run on ice at 30 V low amp for 1 hour, and at 50-75 V for approximately 4 hours. Protein was then transferred to PVDF membrane.
The following antibodies were used in this study: phospho-STAT5 (CST No. 9359, 1:1,000/BSA), STAT5 (CST No. 9363S, 1:1,000/BSA), TNK1 (CST No. 4570, 1:1,000/BSA), phospho-TNK1 (CST No. 5638, 1:1,000/BSA), actin-HRP antibody (ProteinTech No. HRP-60008, 1:10,000/Milk), Peroxidase AffiniPure Donkey Anti-Rabbit IgG (H+L) (JIR No. 711-035-152, 1:5,000/Milk).

[2] = tested on: TNK1 and STAT5 phosphorylation in K562 tumor samples; assay: In vivo single dose PD study, K562 xenograft, Western blot; set-up: species or system mouse; settings: 50 mg/kg once p.o.
A549 cells = assay: Combination with bortezomib, A549 cell confluency (Incucyte); assay type: cell-based
Experimental: A549 cells were seeded in log phase (e.g., at 40-60% confluency) in a well plate. Drug treatments were: no drug treatment, DMSO, bortezomib at 50 nM, 10 nM, 5 nM, 2 nM or 1 nM, Example No. 13 at 10 nM, and bortezomib 50 nM, 10 nM, 5 nM, 2 nM or 1 nM combined with Example No. 13 at 10 nM. The DMSO concentrations were kept constant (including DMSO control) to control for any confounding DMSO toxicity.
Drug addition protocol: On day 1, cells were seeded at 60,000 cells/well, and incubated for 24 hours to allow adherence. On day 2, media was aspirated and replaced with 500 μl of the drug media preparations described below in correlating wells. The plates were placed in Incucyte for 7-14 days, and cell confluency was measured every 2 hours. […]

[3] = tested on: pSTAT5 in L540 xenograft tumors; assay: pSTAT5 assay in L540 xenograft tumors (ELISA); assay type: in vivo, mouse; settings: for suppression of p-STAT5: single dose 10 mg/kg or 25 mg/kg, 24 hours post treatment, absorbance at 450 nm
Experimental: Effects of test compounds on phosphorylation of signal transducer and activator of transcription 5 (STAT5) were determined in L540 xenograft tumors.
Methods: Each treatment group included 10 NOD SCID mice. Each mouse was injected with 1×10^7 L540 cells (86% viable at the time of injection), and treated with a single dose of test compound (10 mg/kg or 25 mg/kg) 10 days post L540 cell injection. Tumors were collected 24 hours post treatment, snap frozen, and kept at −80° C. for 24 hours post-harvest. Phosphorylated STAT5 (pSTAT5) levels were measured in the lysates using the STAT5 AB pY694/699 ELISA Kit (Abcam, Cambridge, UK, ab176656). The standard Abcam ELISA protocol was followed, except for 10× more protein than what Abcam recommends was used.

[4] = L540 xenograft, single p.o. dose 10, 25 or 50 mg/kg

SMILES | animals survived at the end of the study (L540 xenografts; 25 mg/kg group (n=10)) | animals survived at the end of the study (L540 xenografts; 50 mg/kg group (n=10)) | inhibitory effect on TNK1 and STAT5 phosphorylation at 24 hours after dosing ([1]; L540 tumor samples, 24-hour time point) | dose dependence of TNK1 and STAT5 phosphorylation inhibition ([1]; L540 xenograft, 10, 25, 50 mg/kg) | STAT5 phosphorylation in tumor tissue [1, 4] | TNK1 phosphorylation in tumor tissue [1, 4] | STAT5 phosphorylation in tumor samples [2] | TNK1 phosphorylation in tumor samples [2] | cell growth inhibition, alone (A549 cells; 10 nM alone, two independent experiments) | growth inhibition profile of the combination (A549 cells; Example No. 13 10 nM + Bortezomib 1 nM) | dose dependence of p-STAT5 decrease ([3]; 10 mg/kg and 25 mg/kg treated arms) | suppression of p-STAT5 [3]
COc1cc(N2CCN(C)CC2)c(Cl)cc1Nc1ncc(Cl)c(Nc2cccnc2N2CCCC2=O)n1 [Example No. 13, 1-(3-((5-chloro-2-((5-chloro-2-methoxy-4-(4-methylpiperazin-1-yl)phenyl)amino)pyrimidin-4-yl)amino)pyridin-2-yl)pyrrolidin-2-one] | two | two | not sustained | dose dependent | inhibited | inhibited | did not show inhibition | did not show inhibition | no inhibition of cell growth | synergistic | not similarly observed | greater than 50%
COc1cc(N2CCN(C)CC2)c(C)cc1Nc1ncc(Cl)c(Nc2cccnc2N2CCNC2=O)n1 [compound 9, 1-(3-((5-chloro-2-((2-methoxy-5-methyl-4-(4-methylpiperazin-1-yl)phenyl)amino)pyrimidin-4-yl)amino)pyridin-2-yl)imidazolidin-2-one] |  |  |  |  |  |  |  |  |  |  |  | greater than 50%
COc1cc(N2CCN(C)CC2)c(C)cc1Nc1ncc(Br)c(Nc2cccnc2N(C)C)n1 [compound 10, 5-bromo-N^4-(2-(dimethylamino)pyridin-3-yl)-N^2-(2-methoxy-5-methyl-4-(4-methylpiperazin-1-yl)phenyl)pyrimidine-2,4-diamine] |  |  |  |  |  |  |  |  |  |  |  | greater than 50%
